Source: publication PMC11865524
These are yes or no findings as the source states them, for the method shown. Binding seen in cells or lysates may run through a third protein. For part of these data: Binding can be weak; no strength is given.

Protein sequences, listed by entry. Tags and fused reporters are not part of them. Lines headed by an entry give the natural chain unless they say otherwise; changes in a name come on top.
UniProt P20823: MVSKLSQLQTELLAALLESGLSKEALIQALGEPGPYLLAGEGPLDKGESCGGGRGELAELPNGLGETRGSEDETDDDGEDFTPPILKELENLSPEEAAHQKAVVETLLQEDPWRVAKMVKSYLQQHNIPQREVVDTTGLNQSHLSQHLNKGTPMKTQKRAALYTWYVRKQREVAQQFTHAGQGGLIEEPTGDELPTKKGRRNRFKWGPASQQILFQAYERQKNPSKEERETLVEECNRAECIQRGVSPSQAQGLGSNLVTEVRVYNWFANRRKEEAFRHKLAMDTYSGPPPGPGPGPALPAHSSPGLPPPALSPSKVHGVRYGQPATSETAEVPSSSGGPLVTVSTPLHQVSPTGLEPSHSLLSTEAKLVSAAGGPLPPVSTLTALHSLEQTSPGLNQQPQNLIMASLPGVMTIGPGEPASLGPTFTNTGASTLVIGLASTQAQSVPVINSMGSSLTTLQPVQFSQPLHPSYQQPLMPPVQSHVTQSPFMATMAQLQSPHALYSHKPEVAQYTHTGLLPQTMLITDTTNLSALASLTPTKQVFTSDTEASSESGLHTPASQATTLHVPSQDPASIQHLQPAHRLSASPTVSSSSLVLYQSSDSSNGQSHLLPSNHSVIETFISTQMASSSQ
UniProt P17676: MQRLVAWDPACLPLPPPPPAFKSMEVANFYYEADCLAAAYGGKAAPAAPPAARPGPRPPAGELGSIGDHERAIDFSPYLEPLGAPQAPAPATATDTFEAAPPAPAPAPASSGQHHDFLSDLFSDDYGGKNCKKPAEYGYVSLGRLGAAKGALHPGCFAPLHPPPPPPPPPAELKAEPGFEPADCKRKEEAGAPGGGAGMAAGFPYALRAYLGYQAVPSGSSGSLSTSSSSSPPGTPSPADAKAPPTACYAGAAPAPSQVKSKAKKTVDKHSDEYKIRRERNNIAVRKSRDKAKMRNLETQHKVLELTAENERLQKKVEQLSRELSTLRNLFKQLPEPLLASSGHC
UniProt P29034: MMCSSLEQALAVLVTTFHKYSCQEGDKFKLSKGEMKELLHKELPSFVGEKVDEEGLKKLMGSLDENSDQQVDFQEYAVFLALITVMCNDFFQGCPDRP

What was measured:
Assay in all cases: co-IP; exogenous tagged proteins in HEK293T cells; lysate rotated with Anti-FLAG M2 or Anti-HA magnetic beads overnight at 4 °C, washed, immunoblot
ETS1 = biological target: T1, ETS1 (UniProt P14921)
T1 sequence: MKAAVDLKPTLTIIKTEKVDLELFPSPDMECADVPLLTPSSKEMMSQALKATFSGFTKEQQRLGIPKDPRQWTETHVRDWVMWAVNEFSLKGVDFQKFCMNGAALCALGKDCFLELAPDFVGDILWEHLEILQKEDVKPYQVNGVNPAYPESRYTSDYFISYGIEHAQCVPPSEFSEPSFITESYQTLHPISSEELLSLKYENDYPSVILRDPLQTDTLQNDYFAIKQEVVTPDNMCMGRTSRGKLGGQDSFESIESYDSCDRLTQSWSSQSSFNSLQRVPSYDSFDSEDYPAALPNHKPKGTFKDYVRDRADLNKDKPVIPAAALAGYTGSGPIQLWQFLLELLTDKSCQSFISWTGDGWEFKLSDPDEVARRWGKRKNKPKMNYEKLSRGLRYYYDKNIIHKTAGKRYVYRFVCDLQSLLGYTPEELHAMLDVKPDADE

[1] = biological target: HA-tagged HNF1A with the full-length sequence (UniProt P20823)
CEBPB = CEBPB (UniProt P17676)

binding (ETS1): no binding | binding [1]: binds | binding (CEBPB): no binding
Substance: FLAG-tagged S100A2 (from UniProt P29034)
